These results are taken from patent US12077599 (SEOUL NATIONAL UNIVERSITY R AND DB FOUNDATION NATIONAL …, dated 2024).

No constants are given. Whether binding was seen depends on the method and setting. A result given as binding can be weak or reduced; the word gives no strength. Sequences can lack the tags named with a protein.

The target in assay [1] is human ROS1 (full-length), expressed in HEK293T cells from a lentiviral vector (human). The assay can be described thus: immunoprecipitation from HEK293T lysate, SDS-PAGE, LC-MS of the excised band.
The target is the same in assay [2]. The assay can be described thus: immunoprecipitation from lysate of ROS1-transfected HEK293T cells, immunoblot with anti-ROS1 antibody 69D6.

B1: 3B20 scFv-rFc fusion protein (Fc fusion, rabbit)
chain: LTQPSSVSANLGGTVKITCSGGSYGYGWYQQKAPGSAPVTVIYDNTNRPSDIPSRFSGSKSGSTGTLTITGVQVEDEAVYYCGSADSSSIATFGAGTTLTVLGQSSRSSGGGGSSGGGGSAVTLDESGGGLQTPGGTLSLVCKASGFSFSDRGMHWMRQAPGKGLEYVGAISGDGYITHYGAAVKGRATISRDNGQSTVRLQLNNLRAEDTATYYCTRGGGGNIDAWGHGTEVIVSSTS
notes: domain: fragment crystallizable region Fc (rFc); scFv fused with rabbit Fc, expressed from modified pCEP4; also called 3B20-rFc; scFv(3B20)-rFc fusion protein; not shown: rabbit antibody fragment crystallizable region Fc (rFc)
For the molecule B1, the binding result in assay [1] and in assay [2] was “binds” each time.
